The subject of this data set is T1, GST-rCtrA (Ehrlichia chaffeensis).
T1 sequence (looked up): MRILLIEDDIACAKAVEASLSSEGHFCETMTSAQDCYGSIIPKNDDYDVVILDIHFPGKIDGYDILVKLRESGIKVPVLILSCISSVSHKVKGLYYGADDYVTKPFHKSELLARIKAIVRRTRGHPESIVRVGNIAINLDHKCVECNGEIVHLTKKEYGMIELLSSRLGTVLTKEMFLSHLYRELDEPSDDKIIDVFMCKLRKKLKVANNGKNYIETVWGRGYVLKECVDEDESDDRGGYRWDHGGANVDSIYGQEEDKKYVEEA
Description: EMSA. The conditions noted are these: 2.5 uM protein, 50 ng DNA, EMSA: 10 mM Tris-HCl pH 7.5, 1 mM DTT, 20 uL, 50 pmol protein, on ice 30 min, 8% native PAGE in 1x TBE, ethidium bromide stain, recombinant protein, residues 1-265, protein details: N-terminal GST (pET-41a(+)), probe letters rebuilt from the primers and the genome. Background: In EMSA bound probe runs differently from free probe, usually more slowly.

The values that follow come from article PMC9791040, “CtrA activates the expression of glutathione S-transferase conferring oxidative stress resistance to Ehrlichia chaffeensis” (Frontiers in Cellular and Infection Microbiology, 2022).

Protein sequences can lack the tags named with them.

Consider “GTGCTCGAGTTTCTAGGCTATTACTATTTAACTACCTATTTGAAAAATAAAGCACTTGATCATAGACTGATAGTCTTTACTTGTCTGAACTTTAATCAGGAATGTAATATAAAAACTATAAAGATTCAGAATTACATTGCTAGTAAATATAATAAATAATTACCGTAGTAAATTCTATATACAAAAGAATAGATATATATTAAAAACACAACCATAATTATTAATTTTAATATTAACAGGTTATCTATCTGTAATTCTATAAGATAAGTCTAAAAATATTACATTGCACAAGGTTACCAAGTCTG (double strand) [gst promoter probe, 305 bp]”, for which the binding result is listed as “binds”.
